Laboratory results: PMC8418606
No constants are given. Whether binding was seen depends on the method and setting. Binding seen in cells or lysates may run through a third protein. Some entries that bind do so weakly or less than the wild type.

Chains of the proteins cited; added tags and fusions are not shown. Residues count along the entry.
UniProt Q92831: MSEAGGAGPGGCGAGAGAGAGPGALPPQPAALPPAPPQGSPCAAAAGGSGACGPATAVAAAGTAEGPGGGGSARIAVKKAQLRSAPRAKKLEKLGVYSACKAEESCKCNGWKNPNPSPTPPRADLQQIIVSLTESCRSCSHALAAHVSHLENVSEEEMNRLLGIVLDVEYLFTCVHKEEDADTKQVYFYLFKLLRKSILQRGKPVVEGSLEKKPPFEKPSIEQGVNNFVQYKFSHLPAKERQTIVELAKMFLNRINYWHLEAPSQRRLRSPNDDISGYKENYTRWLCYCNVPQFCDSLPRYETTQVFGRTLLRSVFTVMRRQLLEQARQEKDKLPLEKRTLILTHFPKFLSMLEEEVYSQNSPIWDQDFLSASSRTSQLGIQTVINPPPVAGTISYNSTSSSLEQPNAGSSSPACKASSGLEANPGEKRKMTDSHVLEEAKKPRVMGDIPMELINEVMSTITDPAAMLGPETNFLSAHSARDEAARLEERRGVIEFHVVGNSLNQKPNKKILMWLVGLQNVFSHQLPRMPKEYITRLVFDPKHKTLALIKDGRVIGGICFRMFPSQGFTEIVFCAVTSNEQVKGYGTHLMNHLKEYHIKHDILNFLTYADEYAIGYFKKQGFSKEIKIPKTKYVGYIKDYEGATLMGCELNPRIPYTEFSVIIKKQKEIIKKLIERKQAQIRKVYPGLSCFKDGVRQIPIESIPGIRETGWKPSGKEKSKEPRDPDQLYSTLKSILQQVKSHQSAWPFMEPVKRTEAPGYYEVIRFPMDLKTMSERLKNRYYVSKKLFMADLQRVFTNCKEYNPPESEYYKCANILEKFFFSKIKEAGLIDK
UniProt Q09472: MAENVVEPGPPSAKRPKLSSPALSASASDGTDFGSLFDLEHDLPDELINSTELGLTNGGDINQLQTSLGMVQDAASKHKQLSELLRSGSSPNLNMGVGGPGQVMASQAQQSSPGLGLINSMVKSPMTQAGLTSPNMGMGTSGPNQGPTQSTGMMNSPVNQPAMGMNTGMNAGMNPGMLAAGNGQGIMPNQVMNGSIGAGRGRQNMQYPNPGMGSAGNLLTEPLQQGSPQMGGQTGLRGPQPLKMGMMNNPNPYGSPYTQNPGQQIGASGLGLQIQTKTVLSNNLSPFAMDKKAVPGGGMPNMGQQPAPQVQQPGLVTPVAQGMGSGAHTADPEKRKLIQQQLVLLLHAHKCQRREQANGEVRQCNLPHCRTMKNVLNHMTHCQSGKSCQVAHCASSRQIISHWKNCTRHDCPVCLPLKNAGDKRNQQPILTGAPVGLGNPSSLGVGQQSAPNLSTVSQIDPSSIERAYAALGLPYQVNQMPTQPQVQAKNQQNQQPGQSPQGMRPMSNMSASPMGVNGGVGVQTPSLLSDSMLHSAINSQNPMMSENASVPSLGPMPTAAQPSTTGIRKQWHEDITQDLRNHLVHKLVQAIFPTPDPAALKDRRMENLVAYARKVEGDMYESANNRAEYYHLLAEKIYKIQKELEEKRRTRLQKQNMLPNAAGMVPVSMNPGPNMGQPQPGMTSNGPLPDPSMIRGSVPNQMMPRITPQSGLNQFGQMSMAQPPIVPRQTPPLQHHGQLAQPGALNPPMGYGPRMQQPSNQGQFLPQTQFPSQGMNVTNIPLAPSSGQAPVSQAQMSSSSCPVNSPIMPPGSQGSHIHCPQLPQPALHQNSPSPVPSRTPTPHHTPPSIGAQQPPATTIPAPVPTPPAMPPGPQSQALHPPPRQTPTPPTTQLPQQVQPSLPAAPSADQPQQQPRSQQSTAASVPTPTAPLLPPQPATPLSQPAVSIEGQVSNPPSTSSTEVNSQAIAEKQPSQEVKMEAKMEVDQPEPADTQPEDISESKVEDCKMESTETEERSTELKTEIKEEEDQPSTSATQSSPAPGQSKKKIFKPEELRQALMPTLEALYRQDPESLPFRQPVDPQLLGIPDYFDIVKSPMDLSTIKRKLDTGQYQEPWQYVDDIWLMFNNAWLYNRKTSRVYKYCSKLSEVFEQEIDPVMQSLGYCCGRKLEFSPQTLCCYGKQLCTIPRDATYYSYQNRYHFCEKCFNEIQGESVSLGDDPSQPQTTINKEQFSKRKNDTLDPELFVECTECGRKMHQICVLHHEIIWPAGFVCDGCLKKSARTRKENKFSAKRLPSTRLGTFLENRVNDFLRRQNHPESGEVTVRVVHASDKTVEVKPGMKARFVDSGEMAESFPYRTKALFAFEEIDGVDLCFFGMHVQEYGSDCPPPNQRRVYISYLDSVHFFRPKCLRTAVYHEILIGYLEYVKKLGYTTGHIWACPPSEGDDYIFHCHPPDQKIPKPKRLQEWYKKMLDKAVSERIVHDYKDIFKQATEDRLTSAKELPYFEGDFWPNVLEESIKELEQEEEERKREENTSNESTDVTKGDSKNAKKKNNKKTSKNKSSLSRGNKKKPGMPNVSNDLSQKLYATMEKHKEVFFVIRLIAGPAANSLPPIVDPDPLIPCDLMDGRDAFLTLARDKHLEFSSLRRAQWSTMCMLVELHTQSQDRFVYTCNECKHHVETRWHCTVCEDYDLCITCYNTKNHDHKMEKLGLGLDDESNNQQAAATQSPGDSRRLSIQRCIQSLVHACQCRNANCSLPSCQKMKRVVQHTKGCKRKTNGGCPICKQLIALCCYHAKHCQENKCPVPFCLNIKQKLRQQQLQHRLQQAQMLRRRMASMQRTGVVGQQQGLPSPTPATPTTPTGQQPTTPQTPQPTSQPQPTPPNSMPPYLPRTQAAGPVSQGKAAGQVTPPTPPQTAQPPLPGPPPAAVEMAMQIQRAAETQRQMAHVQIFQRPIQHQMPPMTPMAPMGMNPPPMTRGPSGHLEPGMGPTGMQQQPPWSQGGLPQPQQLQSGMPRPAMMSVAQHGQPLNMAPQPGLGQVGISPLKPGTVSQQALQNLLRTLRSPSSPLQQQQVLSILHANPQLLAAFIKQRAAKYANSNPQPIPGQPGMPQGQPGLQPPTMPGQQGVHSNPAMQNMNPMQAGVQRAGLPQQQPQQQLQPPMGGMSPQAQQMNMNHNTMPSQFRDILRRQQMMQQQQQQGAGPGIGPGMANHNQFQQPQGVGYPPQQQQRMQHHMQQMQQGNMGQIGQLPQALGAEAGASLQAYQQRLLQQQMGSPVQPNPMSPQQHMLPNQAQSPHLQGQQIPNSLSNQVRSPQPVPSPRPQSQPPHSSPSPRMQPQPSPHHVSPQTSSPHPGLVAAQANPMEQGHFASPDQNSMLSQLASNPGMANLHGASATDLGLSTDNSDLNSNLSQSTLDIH
UniProt P46531, residues 19-2555: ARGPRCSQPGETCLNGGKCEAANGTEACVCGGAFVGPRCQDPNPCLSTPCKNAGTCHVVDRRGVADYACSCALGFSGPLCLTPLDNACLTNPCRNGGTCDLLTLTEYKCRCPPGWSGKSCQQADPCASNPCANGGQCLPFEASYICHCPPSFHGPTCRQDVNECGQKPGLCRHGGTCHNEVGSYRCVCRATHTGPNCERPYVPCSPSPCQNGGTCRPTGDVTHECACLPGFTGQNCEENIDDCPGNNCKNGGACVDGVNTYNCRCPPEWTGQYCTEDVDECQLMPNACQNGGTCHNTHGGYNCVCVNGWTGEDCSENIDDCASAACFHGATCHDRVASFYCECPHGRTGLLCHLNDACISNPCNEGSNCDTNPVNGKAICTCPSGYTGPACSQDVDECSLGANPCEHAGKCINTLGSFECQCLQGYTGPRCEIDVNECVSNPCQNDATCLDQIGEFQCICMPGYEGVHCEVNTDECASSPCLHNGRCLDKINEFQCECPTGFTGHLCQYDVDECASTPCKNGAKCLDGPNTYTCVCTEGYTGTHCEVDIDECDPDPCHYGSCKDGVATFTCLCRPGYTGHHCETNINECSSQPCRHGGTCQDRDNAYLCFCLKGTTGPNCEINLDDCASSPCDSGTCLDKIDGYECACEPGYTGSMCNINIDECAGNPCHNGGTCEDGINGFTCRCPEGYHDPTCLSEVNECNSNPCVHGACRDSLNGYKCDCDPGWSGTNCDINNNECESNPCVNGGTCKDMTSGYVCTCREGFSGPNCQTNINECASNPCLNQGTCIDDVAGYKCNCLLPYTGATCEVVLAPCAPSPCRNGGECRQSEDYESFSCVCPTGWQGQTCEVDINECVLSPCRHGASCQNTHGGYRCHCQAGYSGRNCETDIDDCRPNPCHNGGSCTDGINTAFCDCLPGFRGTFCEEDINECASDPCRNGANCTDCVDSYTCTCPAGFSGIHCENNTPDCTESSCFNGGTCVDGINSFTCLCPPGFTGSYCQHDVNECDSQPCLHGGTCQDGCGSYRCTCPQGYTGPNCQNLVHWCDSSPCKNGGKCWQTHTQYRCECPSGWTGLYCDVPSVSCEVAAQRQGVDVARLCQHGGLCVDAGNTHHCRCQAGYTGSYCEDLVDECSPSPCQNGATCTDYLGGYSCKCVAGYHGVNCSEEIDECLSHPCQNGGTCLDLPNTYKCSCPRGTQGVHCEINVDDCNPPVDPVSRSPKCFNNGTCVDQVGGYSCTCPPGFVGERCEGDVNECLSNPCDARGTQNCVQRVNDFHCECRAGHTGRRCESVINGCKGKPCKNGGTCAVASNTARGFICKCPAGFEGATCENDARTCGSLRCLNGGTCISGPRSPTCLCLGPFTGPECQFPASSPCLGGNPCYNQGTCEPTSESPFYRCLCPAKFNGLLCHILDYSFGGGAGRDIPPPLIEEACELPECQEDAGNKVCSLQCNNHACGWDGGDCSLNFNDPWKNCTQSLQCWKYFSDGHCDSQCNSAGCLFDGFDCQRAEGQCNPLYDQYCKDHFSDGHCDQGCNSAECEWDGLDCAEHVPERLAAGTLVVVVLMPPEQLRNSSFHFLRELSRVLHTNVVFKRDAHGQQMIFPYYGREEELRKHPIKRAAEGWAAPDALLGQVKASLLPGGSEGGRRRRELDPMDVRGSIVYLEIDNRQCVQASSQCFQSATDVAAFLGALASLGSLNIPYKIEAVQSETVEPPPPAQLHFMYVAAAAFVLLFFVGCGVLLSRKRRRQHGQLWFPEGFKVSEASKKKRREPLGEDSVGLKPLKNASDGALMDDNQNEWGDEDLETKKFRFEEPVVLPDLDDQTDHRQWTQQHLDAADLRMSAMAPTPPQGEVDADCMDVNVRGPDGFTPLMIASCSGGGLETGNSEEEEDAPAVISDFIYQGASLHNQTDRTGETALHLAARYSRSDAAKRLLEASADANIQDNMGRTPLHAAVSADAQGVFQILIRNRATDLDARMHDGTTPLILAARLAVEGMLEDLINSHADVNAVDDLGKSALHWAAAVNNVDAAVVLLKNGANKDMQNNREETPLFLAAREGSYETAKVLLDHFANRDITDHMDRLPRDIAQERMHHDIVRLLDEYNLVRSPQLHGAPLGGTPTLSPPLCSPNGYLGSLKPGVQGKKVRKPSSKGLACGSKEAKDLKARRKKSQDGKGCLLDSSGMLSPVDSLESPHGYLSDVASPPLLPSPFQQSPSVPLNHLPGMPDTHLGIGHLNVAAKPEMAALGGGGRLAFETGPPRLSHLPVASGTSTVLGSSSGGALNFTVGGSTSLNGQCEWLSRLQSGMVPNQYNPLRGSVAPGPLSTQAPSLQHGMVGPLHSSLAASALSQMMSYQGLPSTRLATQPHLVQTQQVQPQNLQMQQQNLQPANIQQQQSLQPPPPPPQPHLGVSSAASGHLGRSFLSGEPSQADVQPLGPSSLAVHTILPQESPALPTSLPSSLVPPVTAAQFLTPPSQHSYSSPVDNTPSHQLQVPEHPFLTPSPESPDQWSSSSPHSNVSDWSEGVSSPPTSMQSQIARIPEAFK

Assays:
[1] = target: p300/CBP-associated factor (pCAF) (human (endogenous in A549)) (UniProt Q92831); assay: co-IP; endogenous proteins; A549 cells immunoprecipitated with anti-p300, anti-pCAF or normal IgG, immunoblot; lysis buffer 50 mM Tris pH 8.0, 500 mM NaCl, 0.5% Nonidet P-40, 1 mM dithiothreitol
[2] = target: histone acetyltransferase p300 (human (endogenous in A549)) (UniProt Q09472); assay: as above

Notch1 (endogenous) (from UniProt P46531 19-2555) (receptor)
binding [1]: binds | binding [2]: binds
